# Laboratory results as given in patent publication US6649637B2, “Inhibition of intracellular replication by pyridinylimidazoles” (priority 2001, dated 2003).
# How the values were obtained:
# [1] = test system: SB203580-resistant Me49 polyclonal population
# [2] = test system: T. gondii Me49 strain tachyzoites; assay: [3H]methyluracil incorporation: intracellular tachyzoite replication in human fibroblasts, Me49 strain; assay type: cell-based; conditions: Toxoplasma gondii, Fibroblast, read-out: IC50 for inhibition of Me49 strain replication
# [3] = test system: T. gondii RH strain tachyzoites; assay: [3H]methyluracil incorporation: intracellular tachyzoite replication in human fibroblasts, RH strain; assay type: cell-based; conditions: Toxoplasma gondii, Fibroblast, read-out: IC50 for inhibition of RH strain replication
structure (smiles),measurement,setting,value
"C[S+]([O-])c1ccc(-c2nc(-c3ccc(F)cc3)c(-c3ccncc3)[nH]2)cc1 (stereo not drawn) [SB203580, 4(4-fluorophenyl)-2-(4-methylsulfinylphenyl)-5(4-pyridyl)1H-imidazole]",IC50 of resistant Me49 population higher than that for parental tachyzoites,[1],approximately 11 fold
same,IC50,[2],~0.5 µM
same,IC50,[3],~6 µM
